This passage reports cell viability results from the supplement of paper PMC11150407.

About 45 (2%) of roughly 3,000 compounds showed an effect of 50% or more. This is one part of the list.

This test deals with MOLM1 and UCSD/AML1 (averaged). The experiment in a line: cell viability relative to DMSO control (POC); higher = less growth inhibition. Conditions: 1 µM; 72 h. As to the method:
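Primary viability screen in the 3q26 EVI1-high AML cell lines MOLM1 and UCSD/AML1, compounds at 1 uM for 72 h. ATP CellTiter-Glo read-out given as percent viable over DMSO control (POC), averaged over duplicates. This mapping covers the TimTec NDL-3000 natural derivative library, whose compounds are identified by TimTec catalogue codes (ST...).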
What is called cell viability is a read-out of living cells in per cent, often relative to untreated cells. Take `COc1cc(OC)cc(C(=O)c2ccc(C(=O)Nc3ccc4ncccc4c3)cc2)c1`: the cell viability came out at 93.5%. The value for `CCOC(=O)CNC(=O)c1ccc(Cl)cc1Cl` was 105%; that for `COC(=O)/C=C/c1cccc(NS(C)(=O)=O)c1` was 99.1%; that for `Cc1ccc2oc(=O)c([N+](=O)[O-])c(O)c2c1` was 106%. Turning to `O=C(O)CCCCCCCCCCC(=O)CCCCC(=O)O`, the cell viability was determined as 97.6%. Regarding `COC(=O)c1ccc(NC(=O)C2Cc3ccccc3CN2S(=O)(=O)c2cccs2)cc1` (stereo not drawn), the cell viability is 92.8%. The value for `CC1(C2(O)CCCCC2)NCCc2ccccc21` (stereo not drawn) was 100%; that for `O=C(O)c1ccc(CSc2ncnc3nc[nH]c23)cc1` was 102%; that for `O=C1ON=C(c2ccc(Br)cc2)/C1=C/c1ccc2c(c1)OCO2` was 94.5%.

For `COc1cc(C(=O)NC(C(=O)O)C(C)C)cc(OC)c1OC` (stereo not drawn), the cell viability stood at 103%. Regarding `COc1cc(C(O)C(=O)O)ccc1O` (stereo not drawn), the cell viability worked out at 102%. On to `Cc1nc2c(nc(SCC(=O)Nc3cccc(F)c3)n2C)c(=O)[nH]1`, for which the cell viability worked out at 98.5%.

Consider `CCN(C(=O)CSc1nc2c(=O)[nH]cnc2n1-c1ccccc1)c1ccccc1`, for which the cell viability was found to be 94.7%.

Regarding `Cc1nc2c(nc(SCc3nc(-c4ccccc4)oc3C)n2C)c(=O)[nH]1`, the cell viability was found to be 97.8%. In the case of `O=c1ccoc2ccccc12`, the cell viability was found to be 93.1%. On to `COC(=O)c1ccccc1SCc1c(OC)c(OC)c(OC)c2c1C(=O)OC2`, for which the cell viability was determined as 110%.

Regarding `COc1cc(C(=O)Nc2cccc3cccnc23)c(Br)c(OC)c1OC`, the cell viability stood at 100%. Regarding `N#Cc1cc2ccccc2oc1=O`, the cell viability was 99.8%. Take `Cc1ccc(N=Cc2c(O)c3ccccc3oc2=O)c(C)c1`: the cell viability came out at 99.6%.

As to `O=C(O)C1C2CC3C(OC(=O)C31)C2Cl` (stereo not drawn), the cell viability amounted to 98.3%. In the case of `CCn1c(SCC(=O)Nc2ccc(C)cc2C)nc2c(=O)[nH]cnc21`, the cell viability is 106%.

In the case of `COc1ccc(/C=C/C(=O)C2CC2)cc1COc1ccc([N+](=O)[O-])cc1`, the cell viability came to 95.1%. The value for `Cc1ccc(-n2c(SCc3ccc(F)cc3)nc3c(=O)[nH]cnc32)cc1` was 105%; that for `COc1cc2c(cc1OC)C(CC(C)C)=NCC2` was 82.3%; that for `COc1ccc(C2c3[nH]c4ccccc4c3CCN2Cc2ccc(F)cc2)cc1` (stereo not drawn) was 82.7%.

Turning to `COc1cc(OC)cc(C(=O)Nc2ccc3oc(-c4ccccc4Cl)nc3c2)c1`, the cell viability is 94.3%. As for `CCOC(=O)c1ccc(NC(=S)NC2OC(COC(C)=O)C(OC(C)=O)C(OC(C)=O)C2OC(C)=O)cc1` (stereo not drawn), the cell viability was 106%.

As for `CCOC(=O)c1c(Cn2cnnn2)n(-c2ccccc2)c2cc(Br)c(OC)cc12`, the cell viability is 80.7%. The value for `O=c1c(O)c(-c2cccnc2)oc2ccc(Cl)cc12` was 94.7%; that for `O=C(CSc1nc2c(=O)[nH]cnc2n1CC1CCCO1)Nc1ccc(F)c(Cl)c1` (stereo not drawn) was 97.3%. Regarding `COC(=O)c1ccc2c(c1)C(=O)/C(=C\c1ccc(OCCC(C)C)c(OC)c1)O2`, the cell viability stood at 95.6%. Consider `COC(=O)C1=C(C)NC2=C(C(=O)CC(C)(C)C2)C1c1cccc(Br)c1` (stereo not drawn), for which the cell viability came to 109%. As to `CCOc1ccccc1C1CCCC2(O)CCN(CC(=O)NCc3ccco3)CC12` (stereo not drawn), the cell viability turned out to be 99.5%.

Consider `Cc1ccc(C)c(N2CCN(Cc3cc(=O)oc4cc(C)cc(C)c34)CC2)c1`, for which the cell viability was 107%. With `O=C(Cn1c(=O)cc(C(=O)N2CCCCC2)c2ccccc21)Nc1ccccc1Cl`, the cell viability was 89.4%. On to `COc1ccc(-c2c(-c3ccccc3)c3ccc(O)cc3oc2=O)cc1`, for which the cell viability came out at 93.5%.

Consider `C=C1C(=O)OC2CC3(C)C(O)CC(O)C(=C)C3CC12` (stereo not drawn), for which the cell viability was determined as 98.3%.

On to `COc1cc(/C=C2\C(=O)N(CCc3ccccc3)C(=O)c3ccccc32)cc(OC)c1OC`, for which the cell viability was 98.6%. As for `Nc1nc2ncc(=O)[nH]c2c(=O)[nH]1`, the cell viability worked out at 106%. Regarding `O=C(CSc1nc2ccccc2c(=O)[nH]1)Nc1cc(F)ccc1F`, the cell viability was 103%. The value for `Cc1[nH]c(=O)[nH]c(=O)c1Br` was 98%. The value for `Cc1ccc(NC(=O)CSc2nc3ncnc(N)c3[nH]2)cc1` was 99.3%; that for `COCCOC(=O)c1c(C)n(CCCNc2ccc([N+](=O)[O-])cc2)c2c1cc(O)c1ccccc12` was 94.9%. The value for `Cc1ccc(OCCn2c(=S)[nH]c3c(N)ncnc32)cc1` was 98.6%; that for `COc1ccc(C(=O)Nc2ccc(OCc3ccccc3)cc2)cc1OC` was 97.4%; that for `COC(=O)C(c1cc(OC)c(O)c(OC)c1)(N1CCNC(C)C1)C(F)(F)F` (stereo not drawn) was 106%. With `COc1ccc(OC)c(C(=O)CC2OC(=O)c3c2ccc(OC)c3OC)c1` (stereo not drawn), the cell viability stood at 104%.

Take `Cc1ccc2cc3c(nc2c1)-c1ccccc1C3=O`: the cell viability amounted to 82.9%. `COC(C)(C)CCCC(C)(O)C#CC(C)N1CCCCC1c1cccnc1` (stereo not drawn): the cell viability is 95.5%. On to `Cc1ccc(NC(=O)c2cc3ccccc3oc2=N)cc1`, for which the cell viability was 87.9%. On to `COc1cc(OC)cc(C(=O)Nc2nnc(CC(C)(C)C)s2)c1`, for which the cell viability was 79.7%.

For the compound `CCOC(=O)c1c(C)n(CCCNc2ccc([N+](=O)[O-])cc2Cl)c2ccc(O)cc12`, the cell viability came to 94.2%. In the case of `CCOc1cc(C2C(C(=O)OCCSCC)=C(C)NC3=C2C(=O)CC(c2ccc(Cl)cc2)C3)ccc1O` (stereo not drawn), the cell viability worked out at 101%.

For `COc1ccc2c(c1)c(CC(=O)NC(c1ccccc1)c1ccc(Br)cc1)c(C)n2C(=O)c1ccc(Cl)cc1` (stereo not drawn), the cell viability amounted to 85%.

Take `Cc1cc(C)c2oc(-c3ccccc3C(=O)O)cc(=O)c2c1`: the cell viability came to 88.6%.

With `O=C(Cn1c(=O)cc(C(=O)NCc2ccccc2)c2ccccc21)Nc1ccc(F)c(Cl)c1`, the cell viability came to 89.3%.

In the case of `COc1ccc(CCNC(=O)CCc2ccccc2O)cc1OC`, the cell viability is 98.8%.

For the compound `Cn1c2c(c(=O)n(C)c1=O)C(c1cccc(F)c1)C(C#N)=C(N)O2` (stereo not drawn), the cell viability came to 104%. The value for `COc1ccc(/C=C2\Oc3cc(O)ccc3C2=O)cc1` was 95.9%; that for `COc1cc(C2NC(=O)N(C)C(C)=C2C(=O)OCCc2ccccc2)cc(Br)c1O` (stereo not drawn) was 107%; that for `Cc1[nH]c2ccccc2c1CCNC(=O)c1ccc(F)cc1` was 90%. The value for `O=C(Nc1nc2c(ncn2C2OC(CO)C(O)C2O)c(=O)[nH]1)C(Cc1ccccc1)N1C(=O)c2ccccc2C1=O` (stereo not drawn) was 89.9%; that for `Cc1[nH]c2ccccc2c1CCNC(=O)c1ccc(Cl)cc1Cl` was 95.3%; that for `CCOC(=O)c1ccc2[nH]c(=O)c(C)c(O)c2c1` was 108%. With `COc1cc(C(=O)Nc2ccccc2Cl)cc(OC)c1OC`, the cell viability was determined as 105%.

Regarding `COc1cc(OC)c2c(c1)C(=O)NN1C(=O)OC(C)(C)C21C` (stereo not drawn), the cell viability is 98.2%. As for `COc1ccccc1C(=O)OCC1CCCN2CCCCC12` (stereo not drawn), the cell viability was found to be 97.9%.

Turning to `CC(C)OC(=O)c1ccc2c(c1)OCCOCCOc1ccc(C(=O)OC(C)C)cc1OCCOCCO2`, the cell viability stood at 101%. Turning to `Nc1ccn(C2OC(CO)C3OP(=O)(O)OC32)c(=O)n1` (stereo not drawn), the cell viability turned out to be 94.8%. In the case of `COC(=O)c1ccc(CSc2nc3c(=O)[nH]c(C)nc3n2C)cc1`, the cell viability amounted to 95.8%. The value for `CC(C)Oc1ccccc1C1Nc2ccccc2NC2=C1C(=O)CC(c1ccccc1Cl)C2` (stereo not drawn) was 108%; that for `CN(c1ccc(OCc2cc(=O)[nH]c3ccccc23)cc1)S(C)(=O)=O` was 90.8%; that for `COc1cc(OC)cc(C(=O)Nc2nnc(CC(C)C)s2)c1` was 85.9%. The value for `COc1ccc(C(=O)NC2CCC(CC3CCC(NC(=O)c4ccc(OC)c(OC)c4)CC3)CC2)cc1OC` (stereo not drawn) was 102%; that for `CC(=O)OC1CCC2(C)C(CCC3(C)C2C(=O)C=C2C4CC(C)(C(=O)Nc5cccc([N+](=O)[O-])c5)CCC4(C)CCC23C)C1(C)C` (stereo not drawn) was 103%; that for `Cn1c(=O)c2c(nc(Br)n2CC(=O)O)n(C)c1=O` was 103%. Turning to `Cc1ccc(NC(=O)CSc2nc(C)cc(=O)[nH]2)cc1`, the cell viability was determined as 103%. Consider `COc1cc(C(=O)CCNc2ccc(I)cc2)cc(OC)c1OC`, for which the cell viability came to 91.4%. Take `COc1ccc(-c2coc3cc(OC4OC(COC(C)=O)C(OC(C)=O)C(OC(C)=O)C4OC(C)=O)cc(OC(C)=O)c3c2=O)cc1` (stereo not drawn): the cell viability was found to be 90.2%. As to `Cc1ccc(C)c(NC(=O)Cn2c(=O)cc(C(=O)N3CCc4ccccc4C3)c3ccccc32)c1`, the cell viability was determined as 100%.

Consider `O=C(O)CCC(=O)N1N=C(c2c(-c3ccccc3)c3cc(Cl)ccc3[nH]c2=O)CC1c1cccc([N+](=O)[O-])c1` (stereo not drawn), for which the cell viability was 95.7%. The value for `COc1ccc(CC(=O)NCCc2c(C)[nH]c3ccccc23)cc1` was 99.3%; that for `O=c1oc2ccccc2cc1-c1cccc(Cl)c1` was 93.4%.
